Consider 1 substance from patent EP3176583A2 (TLA Targeted Immunotherapies AB, dated 2017).

Protein sequences, listed by entry. Tags and fused reporters are not part of them. Residues count along the entry.
UniProt O15444, residues 24-97: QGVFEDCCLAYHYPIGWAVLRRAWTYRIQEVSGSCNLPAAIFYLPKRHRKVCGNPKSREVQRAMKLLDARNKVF

The assay concerns the target T1, hCCR9 (human, UniProt P51686 1-369).
T1 sequence (looked up): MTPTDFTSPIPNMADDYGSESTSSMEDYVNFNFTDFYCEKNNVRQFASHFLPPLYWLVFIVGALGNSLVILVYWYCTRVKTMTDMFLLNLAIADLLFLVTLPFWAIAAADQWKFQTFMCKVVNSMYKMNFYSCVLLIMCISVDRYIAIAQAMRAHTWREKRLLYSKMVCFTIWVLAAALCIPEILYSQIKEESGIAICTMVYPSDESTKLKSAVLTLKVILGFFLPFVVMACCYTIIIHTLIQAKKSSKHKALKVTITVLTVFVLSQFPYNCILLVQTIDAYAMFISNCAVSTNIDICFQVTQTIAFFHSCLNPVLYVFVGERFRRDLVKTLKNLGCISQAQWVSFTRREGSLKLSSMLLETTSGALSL
Kind of assay: perfusion of blood cells over CCL25-coated streptavidin-sepharose beads, flow cytometry before and after.

No constants are given. Whether binding was seen depends on the method and setting. Some results given as binding are weak or reduced against the parent protein; the word gives no strength.

For “Biotinylated CCL25 (Almac Sciences) (from UniProt O15444 24-97) (ligand)”, the binding result is “binds”.
